Source: PMC13157976
For at least one entry, the source does not settle the construct or the ends of the probe. At least one verdict rests on a figure or table, not on a statement of the authors. Where a protein sequence is shown, tags need not be part of it.

Target: T1, MBD8 (methyl-CpG-binding domain protein 8) (UniProt Q9LME6)
T1 sequence (looked up, limits assumed): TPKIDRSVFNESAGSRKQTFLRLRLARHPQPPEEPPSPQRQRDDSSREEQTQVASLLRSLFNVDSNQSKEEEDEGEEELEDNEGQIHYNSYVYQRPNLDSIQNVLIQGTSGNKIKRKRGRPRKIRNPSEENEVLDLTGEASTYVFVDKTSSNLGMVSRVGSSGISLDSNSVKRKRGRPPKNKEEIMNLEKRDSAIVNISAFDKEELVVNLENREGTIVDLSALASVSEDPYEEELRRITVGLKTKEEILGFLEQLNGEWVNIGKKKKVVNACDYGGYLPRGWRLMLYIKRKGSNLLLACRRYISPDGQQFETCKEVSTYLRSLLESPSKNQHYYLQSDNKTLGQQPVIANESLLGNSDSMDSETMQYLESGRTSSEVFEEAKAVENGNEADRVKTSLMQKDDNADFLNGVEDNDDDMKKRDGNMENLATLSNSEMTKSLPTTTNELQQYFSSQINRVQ
Assay: EMSA
Settings: EMSA: 0.2 uM DNA, 0-1.6 uM MBD8, 20 mM Tris-HCl pH 7.5, 150 mM NaCl, 10% glycerol, 2 mM 2-mercaptoethanol, 25 C, 30 min, 8% native PAGE in 0.5x TBE, SYBR Green I, recombinant protein, protein details: N-terminal 6xHis and Halo

**Q.** Does “TTCTTGCCGATTAACATTCAGCTCTTCAGATTCAACATTCACTCTTCTGT (double strand) [CHG, fully methylated (mCHG/mCHG)]” bind (5-methyl-dC at sense 7, 27, 47 and antisense 2, 22, 42, letters put together from the description)?
**A.** Result: binds

**Q.** Does “TTCTTGCCGATTAACATTCAGCTCTTCAGATTCAACATTCACTCTTCTGT (double strand) [CHG, hemimethylated]” bind (5-methyl-dC on one strand only (sense 7, 27, 47 or antisense 2, 22, 42; strand not given), letters put together from the description)?
**A.** Result: binds

**Q.** Does “TTCTTGCCGATTAACATTCAGCTCTTCAGATTCAACATTCACTCTTCTGT (double strand) [CHG, unmethylated (uCHG/uCHG)]” bind?
**A.** Result: binds

**Q.** Does “TTCTTGCCTATTCAACATTCACTGTGCATGTCAACATTCAGCTCGGGCCA (double strand) [CHH, fully methylated (mCHH/mCHH)]” bind (5-methyl-dC at sense 7, 27, 48 and antisense 4, 25, 45, letters put together from the description)?
**A.** Result: binds

**Q.** Does “TTCTTGCCTATTCAACATTCACTGTGCATGTCAACATTCAGCTCGGGCCA (double strand) [CHH, hemimethylated]” bind (5-methyl-dC on one strand only (sense 7, 27, 48 or antisense 4, 25, 45; strand not given), letters put together from the description)?
**A.** Result: binds

**Q.** Does “TTCTTGCCTATTCAACATTCACTGTGCATGTCAACATTCAGCTCGGGCCA (double strand) [CHH, unmethylated (uCHH/uCHH)]” bind?
**A.** Result: binds

**Q.** Does “TTCTTGCGATTCAACATTCAGCTCTTCGATTCAACATTCAGCTCTTCGTT (double strand) [CG, fully methylated (mCG/mCG)]” bind (5-methyl-dC at sense 7, 27, 47 and antisense 3, 23, 43, letters put together from the description)?
**A.** Result: binds

**Q.** Does “TTCTTGCGATTCAACATTCAGCTCTTCGATTCAACATTCAGCTCTTCGTT (double strand) [CG, hemimethylated]” bind (5-methyl-dC on one strand only (sense 7, 27, 47 or antisense 3, 23, 43; strand not given), label: FAM only if methylated sense strand was used, letters put together from the description)?
**A.** Result: binds

**Q.** Does “TTCTTGCGATTCAACATTCAGCTCTTCGATTCAACATTCAGCTCTTCGTT (double strand) [CG, unmethylated (uCG/uCG)]” bind?
**A.** Result: binds
